Measured values: the supplement of paper PMC10849652
Some of the results follow.

Sequences of proteins named here, by UniProt entry; tags and fusion partners are left off. A change or cut given only in a name is not applied to a line headed by its entry.
UniProt Q9BQI0: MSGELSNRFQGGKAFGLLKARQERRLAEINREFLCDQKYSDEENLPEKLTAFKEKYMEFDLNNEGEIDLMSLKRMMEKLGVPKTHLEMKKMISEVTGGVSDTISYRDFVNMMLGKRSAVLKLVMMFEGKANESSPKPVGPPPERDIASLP
UniProt O00170: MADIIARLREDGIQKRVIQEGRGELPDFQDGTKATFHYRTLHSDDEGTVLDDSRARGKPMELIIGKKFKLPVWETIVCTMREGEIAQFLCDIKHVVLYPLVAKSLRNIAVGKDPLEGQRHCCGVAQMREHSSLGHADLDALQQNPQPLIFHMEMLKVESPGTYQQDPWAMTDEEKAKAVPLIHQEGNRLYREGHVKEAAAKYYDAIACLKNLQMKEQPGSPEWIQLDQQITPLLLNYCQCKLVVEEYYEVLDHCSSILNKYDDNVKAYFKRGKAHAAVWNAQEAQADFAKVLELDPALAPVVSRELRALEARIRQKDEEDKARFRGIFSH
UniProt P30038: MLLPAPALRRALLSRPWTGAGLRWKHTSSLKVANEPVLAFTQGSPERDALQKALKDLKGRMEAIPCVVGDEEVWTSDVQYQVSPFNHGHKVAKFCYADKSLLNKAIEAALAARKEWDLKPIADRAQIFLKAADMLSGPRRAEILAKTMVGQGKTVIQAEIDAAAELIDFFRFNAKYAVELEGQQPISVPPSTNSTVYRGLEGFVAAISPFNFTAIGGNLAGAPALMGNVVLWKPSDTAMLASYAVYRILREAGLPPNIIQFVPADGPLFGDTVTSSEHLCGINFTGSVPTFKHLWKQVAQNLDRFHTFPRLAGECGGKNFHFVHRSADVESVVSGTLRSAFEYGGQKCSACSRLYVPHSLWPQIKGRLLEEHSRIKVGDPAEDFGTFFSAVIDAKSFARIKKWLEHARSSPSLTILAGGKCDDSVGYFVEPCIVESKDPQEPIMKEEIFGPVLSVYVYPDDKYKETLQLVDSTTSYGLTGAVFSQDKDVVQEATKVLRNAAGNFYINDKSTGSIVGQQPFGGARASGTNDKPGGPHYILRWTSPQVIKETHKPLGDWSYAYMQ
UniProt P00568: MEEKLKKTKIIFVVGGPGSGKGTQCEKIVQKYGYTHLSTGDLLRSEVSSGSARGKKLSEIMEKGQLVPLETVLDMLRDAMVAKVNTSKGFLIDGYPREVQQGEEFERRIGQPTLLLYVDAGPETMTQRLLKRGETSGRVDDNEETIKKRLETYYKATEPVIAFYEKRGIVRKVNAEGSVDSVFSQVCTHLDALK
UniProt Q9BT22: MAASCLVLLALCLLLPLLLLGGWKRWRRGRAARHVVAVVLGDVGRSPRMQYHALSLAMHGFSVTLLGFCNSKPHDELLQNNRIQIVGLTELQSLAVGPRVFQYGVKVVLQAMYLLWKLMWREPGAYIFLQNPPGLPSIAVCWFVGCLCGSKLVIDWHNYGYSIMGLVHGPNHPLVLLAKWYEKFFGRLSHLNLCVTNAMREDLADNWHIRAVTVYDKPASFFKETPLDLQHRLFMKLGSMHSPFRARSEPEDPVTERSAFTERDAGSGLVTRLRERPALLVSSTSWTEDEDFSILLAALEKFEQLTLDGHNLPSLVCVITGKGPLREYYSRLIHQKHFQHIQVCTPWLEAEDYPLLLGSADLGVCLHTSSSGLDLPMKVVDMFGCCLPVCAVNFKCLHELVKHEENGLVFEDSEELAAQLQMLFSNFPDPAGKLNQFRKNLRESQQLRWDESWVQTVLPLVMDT
UniProt P55196: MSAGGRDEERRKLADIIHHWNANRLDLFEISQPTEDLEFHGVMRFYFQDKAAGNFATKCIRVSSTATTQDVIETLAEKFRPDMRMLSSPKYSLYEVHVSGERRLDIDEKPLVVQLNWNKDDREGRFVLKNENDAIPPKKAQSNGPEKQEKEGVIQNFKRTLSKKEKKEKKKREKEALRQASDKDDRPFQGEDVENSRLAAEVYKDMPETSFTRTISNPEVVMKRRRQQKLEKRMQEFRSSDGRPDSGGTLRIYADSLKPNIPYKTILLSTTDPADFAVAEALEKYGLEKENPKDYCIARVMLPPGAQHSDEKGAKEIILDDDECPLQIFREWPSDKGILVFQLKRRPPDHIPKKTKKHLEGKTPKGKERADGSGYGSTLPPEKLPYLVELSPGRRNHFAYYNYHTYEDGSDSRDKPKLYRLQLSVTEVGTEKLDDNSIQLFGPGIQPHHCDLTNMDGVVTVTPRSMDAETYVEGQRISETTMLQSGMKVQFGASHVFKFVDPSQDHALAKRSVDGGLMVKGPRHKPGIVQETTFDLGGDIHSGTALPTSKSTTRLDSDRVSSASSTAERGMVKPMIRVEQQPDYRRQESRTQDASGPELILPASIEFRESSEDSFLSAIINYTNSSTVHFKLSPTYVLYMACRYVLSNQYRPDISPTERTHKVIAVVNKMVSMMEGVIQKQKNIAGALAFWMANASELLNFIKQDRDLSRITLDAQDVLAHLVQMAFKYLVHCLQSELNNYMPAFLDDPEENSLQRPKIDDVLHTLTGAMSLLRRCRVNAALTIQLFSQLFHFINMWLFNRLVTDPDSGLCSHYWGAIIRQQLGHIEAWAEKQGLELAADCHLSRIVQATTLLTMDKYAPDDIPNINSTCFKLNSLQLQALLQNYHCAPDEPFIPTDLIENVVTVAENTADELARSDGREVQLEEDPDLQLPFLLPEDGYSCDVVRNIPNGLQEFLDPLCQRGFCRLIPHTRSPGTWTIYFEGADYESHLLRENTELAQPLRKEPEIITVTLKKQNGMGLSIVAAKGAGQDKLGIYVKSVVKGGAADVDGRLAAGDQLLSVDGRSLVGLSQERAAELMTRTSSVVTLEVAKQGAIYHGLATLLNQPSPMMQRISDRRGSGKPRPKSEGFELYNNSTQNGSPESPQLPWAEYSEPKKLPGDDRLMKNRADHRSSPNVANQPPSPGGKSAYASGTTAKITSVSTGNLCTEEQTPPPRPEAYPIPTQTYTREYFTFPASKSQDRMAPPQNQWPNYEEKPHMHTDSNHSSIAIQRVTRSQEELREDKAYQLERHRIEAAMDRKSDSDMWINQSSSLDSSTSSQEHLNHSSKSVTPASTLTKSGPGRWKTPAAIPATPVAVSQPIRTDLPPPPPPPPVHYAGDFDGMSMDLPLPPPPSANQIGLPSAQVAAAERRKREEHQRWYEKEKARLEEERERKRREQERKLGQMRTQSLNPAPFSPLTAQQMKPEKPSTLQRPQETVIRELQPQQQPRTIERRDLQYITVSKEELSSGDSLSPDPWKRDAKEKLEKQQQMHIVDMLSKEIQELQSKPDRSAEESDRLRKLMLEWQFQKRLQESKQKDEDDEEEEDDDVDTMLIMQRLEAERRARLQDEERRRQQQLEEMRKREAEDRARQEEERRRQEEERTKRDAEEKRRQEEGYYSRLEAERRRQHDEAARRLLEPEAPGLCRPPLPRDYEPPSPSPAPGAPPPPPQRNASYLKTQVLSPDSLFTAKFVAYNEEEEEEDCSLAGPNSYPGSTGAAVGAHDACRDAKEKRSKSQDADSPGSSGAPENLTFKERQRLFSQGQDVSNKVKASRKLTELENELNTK
UniProt Q92685: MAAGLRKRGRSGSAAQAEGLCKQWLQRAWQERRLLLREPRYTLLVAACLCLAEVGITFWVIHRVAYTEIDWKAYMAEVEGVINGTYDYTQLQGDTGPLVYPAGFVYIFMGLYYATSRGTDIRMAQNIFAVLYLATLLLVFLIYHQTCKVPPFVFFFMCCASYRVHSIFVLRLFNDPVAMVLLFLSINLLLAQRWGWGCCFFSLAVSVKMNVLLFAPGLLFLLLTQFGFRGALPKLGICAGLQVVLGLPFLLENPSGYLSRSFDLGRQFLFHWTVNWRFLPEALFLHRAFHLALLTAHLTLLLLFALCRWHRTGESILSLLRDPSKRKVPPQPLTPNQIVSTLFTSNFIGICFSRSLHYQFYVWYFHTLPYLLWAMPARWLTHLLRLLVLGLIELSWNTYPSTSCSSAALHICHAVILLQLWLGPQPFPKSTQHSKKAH
UniProt O43823: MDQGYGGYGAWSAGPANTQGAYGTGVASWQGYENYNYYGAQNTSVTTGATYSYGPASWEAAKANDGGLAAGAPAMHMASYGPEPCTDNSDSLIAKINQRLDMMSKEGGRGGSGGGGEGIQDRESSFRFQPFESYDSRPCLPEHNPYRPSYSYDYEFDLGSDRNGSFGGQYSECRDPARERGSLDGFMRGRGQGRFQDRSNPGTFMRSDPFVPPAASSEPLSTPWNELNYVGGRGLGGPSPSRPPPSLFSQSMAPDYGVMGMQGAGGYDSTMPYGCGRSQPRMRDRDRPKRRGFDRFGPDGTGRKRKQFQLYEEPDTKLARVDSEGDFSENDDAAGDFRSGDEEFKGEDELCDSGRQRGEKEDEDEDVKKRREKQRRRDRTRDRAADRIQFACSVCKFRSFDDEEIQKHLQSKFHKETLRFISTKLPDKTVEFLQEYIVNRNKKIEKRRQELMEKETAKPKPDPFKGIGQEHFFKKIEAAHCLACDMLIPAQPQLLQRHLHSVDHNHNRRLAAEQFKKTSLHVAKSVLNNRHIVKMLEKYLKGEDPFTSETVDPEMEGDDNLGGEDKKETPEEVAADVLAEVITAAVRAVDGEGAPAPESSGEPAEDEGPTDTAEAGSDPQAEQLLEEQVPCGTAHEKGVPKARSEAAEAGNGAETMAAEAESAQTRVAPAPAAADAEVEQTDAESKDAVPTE
UniProt Q9Y303: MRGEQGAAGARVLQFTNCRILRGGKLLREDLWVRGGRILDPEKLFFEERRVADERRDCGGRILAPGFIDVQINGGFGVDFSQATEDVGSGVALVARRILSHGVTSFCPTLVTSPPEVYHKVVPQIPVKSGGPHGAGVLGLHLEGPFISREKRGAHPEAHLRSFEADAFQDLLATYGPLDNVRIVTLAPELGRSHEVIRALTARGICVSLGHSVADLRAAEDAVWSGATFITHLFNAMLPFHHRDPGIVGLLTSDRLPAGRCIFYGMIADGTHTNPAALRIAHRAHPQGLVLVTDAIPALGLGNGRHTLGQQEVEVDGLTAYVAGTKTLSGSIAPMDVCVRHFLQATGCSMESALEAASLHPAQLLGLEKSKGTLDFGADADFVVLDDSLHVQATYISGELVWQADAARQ
UniProt Q02252: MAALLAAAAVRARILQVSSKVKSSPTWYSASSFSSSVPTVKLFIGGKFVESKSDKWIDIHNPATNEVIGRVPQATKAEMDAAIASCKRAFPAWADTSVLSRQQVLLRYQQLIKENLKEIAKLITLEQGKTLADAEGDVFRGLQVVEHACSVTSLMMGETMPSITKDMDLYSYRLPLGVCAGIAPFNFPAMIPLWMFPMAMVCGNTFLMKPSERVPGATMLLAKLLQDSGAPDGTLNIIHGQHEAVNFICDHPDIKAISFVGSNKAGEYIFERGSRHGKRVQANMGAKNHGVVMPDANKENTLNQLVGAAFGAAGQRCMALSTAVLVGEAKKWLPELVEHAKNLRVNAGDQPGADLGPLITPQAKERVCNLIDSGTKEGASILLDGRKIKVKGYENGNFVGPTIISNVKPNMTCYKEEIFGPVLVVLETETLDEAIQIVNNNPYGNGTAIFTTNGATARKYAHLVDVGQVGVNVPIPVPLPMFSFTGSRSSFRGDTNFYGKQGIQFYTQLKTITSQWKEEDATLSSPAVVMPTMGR
UniProt O15120: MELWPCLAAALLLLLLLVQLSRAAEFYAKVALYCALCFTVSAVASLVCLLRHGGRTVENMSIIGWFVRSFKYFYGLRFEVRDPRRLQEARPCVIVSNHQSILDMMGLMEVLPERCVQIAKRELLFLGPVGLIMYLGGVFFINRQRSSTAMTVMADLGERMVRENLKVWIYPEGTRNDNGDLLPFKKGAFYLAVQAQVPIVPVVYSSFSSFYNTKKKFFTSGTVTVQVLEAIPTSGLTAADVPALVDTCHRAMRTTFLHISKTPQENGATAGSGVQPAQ
UniProt Q3KRA9: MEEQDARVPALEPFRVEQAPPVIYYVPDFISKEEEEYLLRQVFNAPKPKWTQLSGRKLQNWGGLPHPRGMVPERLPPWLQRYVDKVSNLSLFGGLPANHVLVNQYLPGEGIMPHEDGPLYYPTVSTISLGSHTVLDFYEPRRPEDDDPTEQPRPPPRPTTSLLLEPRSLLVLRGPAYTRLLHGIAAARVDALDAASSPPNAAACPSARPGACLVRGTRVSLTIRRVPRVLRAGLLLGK
UniProt Q53H12: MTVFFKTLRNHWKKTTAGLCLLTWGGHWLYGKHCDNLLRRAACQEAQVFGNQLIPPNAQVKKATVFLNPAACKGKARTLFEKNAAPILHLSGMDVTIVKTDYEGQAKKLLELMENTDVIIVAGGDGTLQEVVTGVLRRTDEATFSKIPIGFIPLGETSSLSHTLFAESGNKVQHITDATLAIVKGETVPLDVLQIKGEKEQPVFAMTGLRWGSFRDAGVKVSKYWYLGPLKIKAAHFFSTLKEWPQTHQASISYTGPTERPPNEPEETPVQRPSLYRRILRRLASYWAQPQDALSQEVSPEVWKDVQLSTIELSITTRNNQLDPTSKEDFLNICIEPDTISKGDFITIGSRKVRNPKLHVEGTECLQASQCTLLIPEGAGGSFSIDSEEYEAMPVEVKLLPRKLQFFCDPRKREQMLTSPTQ

Assays:
Test in all cases: log2 fold change, soluble protein after heating vs DMSO (PISA); higher = thermal stabilisation; K562 cells, 10 uM, 30 min; active = over 0.2 and 3.5 SD of the protein, either way, in both replicates (recomputed)
erlotinib = compound: C#Cc1cccc(Nc2ncnc3cc(OCCOC)c(OCCOC)cc23)c1 [erlotinib]
Method in brief: (§1)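 K562 cells at 2×10^6 cells/mL were treated with 10 μM compound for 30 min. Aliquots were heated for 3 min across 48°C-58°C, pooled, and extracted in PBS with 0.5% NP-40 at 4°C; soluble protein was the supernatant after 21,000xg for 90 min. Soluble protein was quantified by TMTpro 16plex LC-MS/MS with channel sums equalised, and reported as log2 fold change in thermal stability against DMSO controls, with values from duplicates.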

[1] = compound: C/C(=N\NC(=O)C1=CC(=CC=C1)S(=O)(=O)N2CCOCC2)/C3=C(C=CC(=C3)Cl)O
Method in brief: as §1

[2] = compound: C1=CC(=C(C=C1Cl)C2=NC3=NC=CN=C3C(=N2)NC4=CC=NC=C4)F
Method in brief: as §1

[3] = compound: C1=CC(=CC=C1C2=NC3=C(N2)C=C(C=C3)C(=O)N)OC4=CC=C(C=C4)Cl
Method in brief: as §1

[4] = compound: C1=CC2=C(C=CC(=C2)/C=C\3/C(=O)NC(=NCC4=CC=CS4)S3)N=C1
Method in brief: as §1

[5] = compound: C1=CC2=NC=CN=C2C=C1/C=C/3\C(=O)NC(=O)S3
Method in brief: as §1

[6] = compound: C1=CC=C(C=C1)C2=NC(=C(N2)C3=CC=NC=C3)C4=CC(=C(C=C4)Cl)O
Method in brief: as §1

[7] = compound: C1=CC=C2C(=C1)C3=NNC4=CC=CC(=C43)C2=O
Method in brief: as §1

[8] = compound: C1CCN(C1)C(=O)NC2=CC=CC(=C2)NC3=NC=C(C(=N3)NCCC4=CN=CN4)Br
Method in brief: as §1

[9] = compound: C1CN(CCC1(CC2=CC=C(C=C2)Cl)N)C3=NC=NC4=C3C=CN4
Method in brief: as §1

Measured: log2 fold change

AKT1S1 isoform 3 (UniProt Q96B36)
inactive: erlotinib 0.018 | [1] -0.027 | [2] 0.008 | [3] 0.049 | [4] 0.097 | [5] 0.021 | [6] -0.089 | [7] -0.025 | [8] 0.05 | [9] 0.102

AIF1L isoform 2 (UniProt Q9BQI0)
inactive: erlotinib 0.007 | [1] 0.31 | [2] 0.308 | [3] 0.074 | [4] 0.2 | [5] -0.064 | [6] 0.009 | [7] -0.197

ADD1 isoform 3 (UniProt P35611)
inactive: erlotinib 0.041 | [1] 0.018 | [2] -0.013 | [3] -0.022 | [4] 0.071 | [5] 0.004 | [6] -0.08 | [7] -0.018 | [8] -0.018 | [9] 0.023

ADI1 (UniProt Q9BV57)
inactive: erlotinib 0.026 | [1] -0.183 | [2] 0.019 | [3] 0.08 | [4] 0.057 | [5] 0.048 | [6] -0.031 | [7] 0.004 | [8] -0.057 | [9] -0.03

AIP (UniProt O00170)
inactive: erlotinib 0.035 | [1] 0.096 | [2] 0.133 | [3] -0.006 | [4] 0.042 | [5] 0.048 | [6] -0.01 | [7] 0.011 | [8] 0.005 | [9] -0.026

ALDH4A1 (UniProt P30038)
inactive: erlotinib 0.048 | [1] 0.047 | [2] 0.072 | [3] -0.046 | [4] 0.018 | [5] 0.023 | [6] 0.025 | [7] 0.045 | [8] -0.006 | [9] 0.035

AK1 (UniProt P00568)
inactive: erlotinib -0.013 | [1] 0.038 | [2] 0.041 | [3] 0.025 | [4] 0.089 | [5] 0.052 | [6] -0.005 | [7] 0.012 | [8] 0.024 | [9] -0.023

ALG5 (UniProt Q9Y673)
inactive: erlotinib -0.008 | [1] 0.014 | [2] 0.071 | [3] 0.008 | [4] 0.023 | [5] 0.003 | [6] 0.009 | [7] 0.048 | [8] -0.026 | [9] -0.007

AFG1L (UniProt Q8WV93)
inactive: erlotinib 0.053 | [1] 0 | [2] 0.076 | [3] -0.083 | [4] 0.065 | [5] 0.041 | [6] -0.204 | [7] -0.042 | [8] 0.058 | [9] -0.004

ADD2 (UniProt P35612)
inactive: erlotinib 0.008 | [1] -0.011 | [2] 0.025 | [3] 0.004 | [4] -0.004 | [5] 0.022 | [6] 0.012 | [7] -0.005 | [8] 0.004 | [9] 0.016

AFTPH isoform 9 (UniProt Q6ULP2)
inactive: erlotinib -0.022 | [1] 0.021 | [2] -0.062 | [3] 0.03 | [4] 0.02 | [5] 0.065 | [6] -0.029 | [7] 0.034 | [8] -0.016 | [9] 0.002

ADD3 (UniProt Q9UEY8)
inactive: erlotinib 0.018 | [1] 0 | [2] -0.008 | [3] 0.025 | [4] 0.02 | [5] 0.013 | [6] -0.025 | [7] -0.024 | [8] -0.015 | [9] 0.031

AKR7A2 (UniProt O43488)
inactive: erlotinib -0.032 | [1] 0.101 | [2] 0.108 | [3] -0.026 | [4] -0.059 | [5] 0 | [6] -0.006 | [7] 0.067 | [8] -0.044 | [9] 0.056

ALG1 (UniProt Q9BT22)
inactive: erlotinib 0.082 | [1] 0.05 | [2] 0.095 | [3] -0.003 | [4] 0.049 | [5] -0.002 | [6] -0.014 | [7] 0.022 | [8] -0.005 | [9] 0.019

Six successive records already listed:
ALDH4A1 (UniProt P30038)
inactive: erlotinib 0.048 | [1] 0.047 | [2] 0.072 | [3] -0.046 | [4] 0.018 | [5] 0.023 | [6] 0.025 | [7] 0.045 | [8] -0.006 | [9] 0.035

AK1 (UniProt P00568)
inactive: erlotinib -0.013 | [1] 0.038 | [2] 0.041 | [3] 0.025 | [4] 0.089 | [5] 0.052 | [6] -0.005 | [7] 0.012 | [8] 0.024 | [9] -0.023

ALG5 (UniProt Q9Y673)
inactive: erlotinib -0.008 | [1] 0.014 | [2] 0.071 | [3] 0.008 | [4] 0.023 | [5] 0.003 | [6] 0.009 | [7] 0.048 | [8] -0.026 | [9] -0.007

AFG1L (UniProt Q8WV93)
inactive: erlotinib 0.053 | [1] 0 | [2] 0.076 | [3] -0.083 | [4] 0.065 | [5] 0.041 | [6] -0.204 | [7] -0.042 | [8] 0.058 | [9] -0.004

ADD2 (UniProt P35612)
inactive: erlotinib 0.008 | [1] -0.011 | [2] 0.025 | [3] 0.004 | [4] -0.004 | [5] 0.022 | [6] 0.012 | [7] -0.005 | [8] 0.004 | [9] 0.016

AFTPH isoform 9 (UniProt Q6ULP2)
inactive: erlotinib -0.022 | [1] 0.021 | [2] -0.062 | [3] 0.03 | [4] 0.02 | [5] 0.065 | [6] -0.029 | [7] 0.034 | [8] -0.016 | [9] 0.002

Next part

AFDN isoform 1 (UniProt P55196)
inactive: erlotinib -0.008 | [1] 0.072 | [2] 0.002 | [3] -0.003 | [4] -0.136 | [5] -0.018 | [6] -0.082 | [7] -0.005

ALG3 (UniProt Q92685)
inactive: erlotinib 0.024 | [1] 0.127 | [2] 0.07 | [3] -0.081 | [4] 0.03 | [5] -0.002 | [6] 0.022 | [7] -0.011 | [8] -0.133 | [9] 0.103

AKAP8 (UniProt O43823)
inactive: erlotinib -0.056 | [1] 0.032 | [2] 0.074 | [3] 0.039 | [4] -0.028 | [5] -0.004 | [6] -0.039 | [7] -0.068 | [8] 0.015 | [9] 0.018

AMDHD2 isoform 3 (UniProt Q9Y303)
inactive: erlotinib 0.063 | [1] 0.008 | [2] -0.023 | [3] 0.011 | [4] 0.094 | [5] 0.051 | [6] 0.018 | [7] -0.008 | [8] -0.056 | [9] 0.054

ALDH9A1 isoform 3 (UniProt P49189)
inactive: erlotinib -0.025 | [1] 0.016 | [2] 0.043 | [3] 0.027 | [4] -0.004 | [5] 0.003 | [6] 0.037 | [7] -0.007 | [8] -0.018 | [9] 0.051

AIF1 (UniProt P55008)
inactive: erlotinib 0.155 | [1] -0.02 | [2] 0.09 | [3] 0.08 | [4] -0.051 | [5] 0.093 | [6] 0.058 | [7] -0.126

ALDH6A1 (UniProt Q02252)
inactive: erlotinib 0.067 | [1] -0.02 | [2] 0.061 | [3] -0.144 | [4] 0.074 | [5] -0.043 | [6] 0.038 | [7] -0.038 | [8] -0.03 | [9] 0.043

AGPAT2 (UniProt O15120)
inactive: erlotinib 0.056 | [1] -0.086 | [2] 0.032 | [3] 0.038 | [4] 0.258 | [5] 0.078 | [6] 0.011 | [7] -0.002 | [8] -0.243 | [9] 0.015

ADRM1 (UniProt Q16186)
inactive: erlotinib -0.069 | [1] -0.038 | [2] -0.007 | [3] 0.006 | [4] 0.034 | [5] 0.033 | [6] 0.028 | [7] 0.046 | [8] -0.017 | [9] -0.076

AMFR (UniProt Q9UKV5)
inactive: erlotinib 0.116 | [1] 0 | [2] -0.022 | [3] -0.062 | [4] -0.046 | [5] 0.058 | [6] 0.026 | [7] -0.062 | [8] 0.002 | [9] -0.009

ALDH1L2 (UniProt Q3SY69)
inactive: erlotinib 0.031 | [1] 0.089 | [2] -0.025 | [3] -0.015 | [4] 0.033 | [5] 0.149 | [6] -0.104 | [7] -0.033 | [8] -0.089 | [9] 0

AGPAT1 (UniProt Q99943)
inactive: erlotinib 0.04 | [1] -0.004 | [2] 0.008 | [3] -0.014 | [4] 0.013 | [5] 0.029 | [6] -0.015 | [7] -0.001 | [8] 0.001 | [9] 0.048

ADSS1 (UniProt Q8N142)
inactive: erlotinib 0.037 | [1] 0.061 | [2] 0.03 | [3] 0.068 | [4] 0.01 | [5] -0.007 | [6] -0.023 | [7] 0.002 | [8] -0.033 | [9] -0.029

ALKBH6 isoform 2 (UniProt Q3KRA9)
inactive: erlotinib -0.098 | [1] 0.023 | [2] -0.018 | [3] 0.058 | [4] 0.037 | [5] 0.007 | [6] -0.049 | [7] -0.038 | [8] -0.046 | [9] 0.151

AGRN (UniProt O00468)
active: [6] 0.366
inactive: erlotinib 0.064 | [1] -0.013 | [2] -0.039 | [3] -0.125 | [4] 0.071 | [5] -0.048 | [7] 0.024 | [8] -0.091 | [9] 0.05

AGK (UniProt Q53H12)
inactive: erlotinib 0.029 | [1] 0.007 | [2] 0.078 | [3] 0.006 | [4] 0.009 | [5] -0.025 | [6] -0.003 | [7] -0.009 | [8] -0.014 | [9] 0.049
